Reference: PubChem BioAssay AID504467 (National Center for Advancing Translational Sciences (NCATS), 2011)
The whole screen tested about 330,000 compounds, of which about 7,700 (2.3%) were called active. This list was built around the results that the source calls inconclusive (neither active nor inactive); the mix of calls is not that of the screen. Calls come from the whole dose curve; as a rule, active = well fitted inhibition curve with a large enough effect; inconclusive = small, poorly fitted or top-dose-only effect, or effect the other way; inactive = flat fitted curve, though single readings scatter. Where the call is inconclusive, the potency comes from a doubtful curve fit.

test: qHTS screen for small molecules that inhibit ELG1-dependent DNA repair in human embryonic kidney (HEK293T) cells expressing luciferase-tagged ELG1; conditions: HEK293T ELG1-luciferase reporter, luminescence, 16 h, DNA damage induced by 5-fluorouridine; activity change, negative = inhibition: at 46.1 µM (top of the series); note: nearly all actives have a fitted effect of over 55% in size
In short: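 In this reporter screen, reduction of luminescence relative to DMSO vehicle indicated activity. Compounds and 5-fluorouridine were added together to 2,000 cells per well, incubated for 16 hr at 37 °C, then developed with ONE-Glo.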
% is set by controls: 0 for no effect and ±100 for the full control effect; potency is the fitted concentration of half-maximal effect.

Structure (SMILES)	Potency	activity change, negative = inhibition
CCc1nnc(NC(=O)c2oc3cc(C)c(C)cc3c2C)s1	inconclusive: 5.17 µM [activator, partial curve]	
O=C(Nc1ccccc1-c1nnn(CC(=O)N2CCN(c3ccccc3)CC2)n1)c1cccs1	active: 23.1 µM	
CCn1c(SCC(=O)Nc2nccs2)nnc1-c1ccccn1		inactive: 3.5%
O=C(Nc1ccc(F)c(Cl)c1)c1nsc(Cl)c1Cl	inconclusive: 9.2 µM [activator, partial curve]	
CC(C)C(c1nnnn1Cc1ccccc1)N1CCN(Cc2ccc3c(c2)OCO3)CC1 (stereo not given)	inconclusive: 29.1 µM [inhibitor, single point]	
COc1cc(C(=O)NCc2nnc(SCC(=O)N3CCCC3)o2)cc(OC)c1OC	inconclusive: 23.1 µM [activator, single point]	
COc1ccc(CNC(=O)c2ccc3c(=O)n(-c4ccccc4)c(=O)[nH]c3c2)cc1		inactive: 1.47%
COc1ccccc1C(=O)Nc1sc2c(c1C(=O)NCc1ccco1)CCCC2		inactive: 1.71%
COC(=O)c1sc2ccccc2c1-n1cccc1C(=O)C(=O)Nc1ccc(OC)cc1	active: 13 µM	
COc1ccc2[nH]c(-c3ccccc3)cc2c1	inconclusive: 9.2 µM [activator, partial curve]	
CC(=O)NCC(=O)N1CCC(n2nccc2NC(=O)CCCc2ccccc2)CC1	inconclusive: 20.6 µM [activator, single point]	
CN(C)c1ccc(C(=O)Nc2ccc(O)c3c(=O)cc(-c4ccccc4Cl)oc23)cc1	inconclusive: 18.3 µM [inhibitor, single point]	
Cc1nc(COC(=O)c2c(C)nn(-c3ccccc3)c2C)cs1	inconclusive: 4.11 µM [activator, full curve]	
COCCNC(=O)CCSc1nc(-c2ccc(OC)cc2)cc(C(F)(F)F)n1	inconclusive: 29.1 µM [inhibitor, single point]	
CCOc1ccc2nc(NC(=O)CN3CCOCC3)sc2c1	inconclusive: 20.6 µM [activator, single point]	
Cc1ccc(Nc2c(-c3ccc(N4CCOCC4)cc3)nc3ncccn23)c(C)c1	active: 11.6 µM	
O=C(NCc1nnc(SCC(=O)N2CCCc3ccccc32)o1)c1c(F)cccc1Cl		inactive: 2.39%
CCOC(=O)c1cc(NC(=O)Nc2nccs2)c(C)nc1C	inconclusive: 25.9 µM [inhibitor, single point]	
CC(=C/c1ccccc1)/C=C1/SC(N2CCOCC2)=NC1=O	inconclusive: 16.4 µM [activator, partial curve]	
Cc1cc(Cl)c(S(=O)(=O)NC2CCCCC2)cc1OCC(=O)Nc1nncs1	inconclusive: 20.6 µM [inhibitor, partial curve, poor fit]	

Taken from above (2 entries):
Structure (SMILES)	Potency	activity change, negative = inhibition
COCCNC(=O)CCSc1nc(-c2ccc(OC)cc2)cc(C(F)(F)F)n1	inconclusive: 29.1 µM [inhibitor, single point]	
CCOc1ccc2nc(NC(=O)CN3CCOCC3)sc2c1	inconclusive: 20.6 µM [activator, single point]	
